Assay results published in patent EP4296281A1.
Results are given in words; binding and its absence hold for the method and conditions named. Some results given as binding are weak or reduced against the parent protein; the word gives no strength. Where a sequence is shown, tags or fusion partners need not be part of it. Blank lines part the entries; values can stand above or below the binder they belong to.

Columns and labels:
[1] = target: T1, La epitope 5B9 (SEQ ID No. 28) fused to human Fc domain (human); test: SPR, Fig. 3A
T1 sequence: KPLPEVTDEY

[2] = target: T1, La epitope 5B9 (SEQ ID No. 28) fused to human Fc domain (human); test: SPR, Fig. 3E
[3] = target: T1, La epitope 5B9 (SEQ ID No. 28) fused to human Fc domain (human); test: SPR, Fig. 3D
[4] = target: T1, La epitope 5B9 (SEQ ID No. 28) fused to human Fc domain (human); test: SPR, Fig. 3B
[5] = target: T1, La epitope 5B9 (SEQ ID No. 28) fused to human Fc domain (human); test: SPR, Fig. 3C

B1: reference targeting module according to SEQ ID No. 2 (bispecific antibody)
chain: EVQLQQSGPELVKPGASVKMSCKASGYTFTDYYMKWVKQSHGKSLEWIGDIIPSNGATFYNQKFKGKATLTVDRSSSTAYMHLNSLTSEDSAVYYCTRSHLLRASWFAYWGQGTLVTVSAASGGGGSGGGGSGGGGSDFVMTQSPSSLTVTAGEKVTMSCKSSQSLLNSGNQKNYLTWYLQKPGQPPKLLIYWASTRESGVPDRFTGSGSGTDFTLTISSVQAEDLAVYYCQNDYSYPYTFGGGTKLEIKAAARGQVQLVQSGAEVKKPGASVKVSCKASGYTFTHYYIYWVRQAPGQGLEWMGGVNPSNGGTHFNEKFKSRVTMTRDTSISTAYMELSRLRSDDTAVYYCARSEYDYGLGFAYWGQGTLVTVSSGGGGSGGGGSGGGGSDIVMTQSPDSLAVSLGERATINCKSSQSLLNSRTPKNYLAWYQQKPGQPPKLLIYWASTRKSGVPDRFSGSGSGTDFTLTISSLQAEDVAVYYCKQSYNLLTFGGGTKVEIKGPEQKLISEEDLNSAVDHHHHHH
binding [1]: binds

B4: targeting module according to SEQ ID No. 3 (bispecific antibody)
chain: GQVQLVQSGAEVKKPGSSVKVSCKASGYTFTDYYIHWVRQAPGQGLEWMGDIIPSNGATFYNQRFKGRVTITADESTSTAYMELSSLRSEDTAVYYCTRSHLLRASWFAYWGQGTLVTVSSASGGGGSGGGGSGGGGSDIVMTQTPLSLSVTPGQPASISCRSSQSLLNSGNQKNYLTWYLQKPGQSPQLLIYWASTRFIGVPDRFSGSGSGTDFTLKISRVEAEDVGVYYCQNDYSYPYTFGQGTKLEIKAAARGDIVMTQSPDSLAVSLGERATINCKSSQSLLNSRTPKNYLAWYQQKPGQPPKLLIYWASTRKSGVPDRFSGSGSGTDFTLTISSLQAEDVAVYYCKQSYNLLTFGGGTKVEIKGGGGSGGGGSGASAAGGGGSGGGGSQVQLVQSGAEVKKPGASVKVSCKASGYTFTHYYIYWVRQAPGQGLEWMGGVNPSNGGTHFNEKFKSRVTMTRDTSISTAYMELSRLRSDDTAVYYCARSEYDYGLGFAYWGQGTLVTVSSGGGGSHHHHHHHH
binding [4]: binds

B5: targeting module according to SEQ ID No. 4 (bispecific antibody)
chain: GQVQLVQSGAEVKKPGASVKMSCKASGYTFTDYYMKWVKQAPGQGLEWIGDIIPSNGATFYNQKFQGRATLTVDTSTSTAYMELSSLRSEDTAVYYCTRSHLLRASWFAYWGQGTLVTVSSASGGGGSGGGGSGGGGSDIVMTQSPDSLAVSLGERATINCKSSQSLLNSGNQKNYLTWYLQKPGQPPKLLIYWASTRESGVPDRFSGSGSGTDFTLTISSVQAEDVAVYYCQNDYSYPYTFGGGTKLEIKAAARGDIVMTQSPDSLAVSLGERVTMNCKSSQSLLNSRTPKNYLAWYQQKPGQSPKLLIYWASTRKSGVPDRFSGSGSGTDFTLTISSVQAEDVAVYYCKQSYNLLTFGGGTKLEIKGGGGSGGGGSGASAAGGGGSGGGGSQVQLVESGAEVVKPGASVKLSCKASGYAFTHYYIYWIKQAPGQGLEWIGGVNPSNGGTHFNEKFKSRATLTVDTSISTAYMELSRLRSDDTAVYYCTRSEYDYGLGFAYWGQGTLVTVSSGGGGSHHHHHHHH
binding [5]: binds

More lines, now with the values ahead:

binding [2]: binds
B2: targeting module according to SEQ ID No. 6 (bispecific antibody)
chain: EVQLQQSGPELVKPGASVKMSCKASGYTFTDYYMKWVKQSHGKSLEWIGDIIPSNGATFYNQKFKGKATLTVDRSSSTAYMHLNSLTSEDSAVYYCTRSHLLRASWFAYWGQGTLVTVSAASGGGGSGGGGSGGGGSDFVMTQSPSSLTVTAGEKVTMSCKSSQSLLNSGNQKNYLTWYLQKPGQPPKLLIYWASTRESGVPDRFTGSGSGTDFTLTISSVQAEDLAVYYCQNDYSYPYTFGGGTKLEIKAAARGDIVMTQSPDSLAVSLGERVTMNCKSSQSLLNSRTPKNYLAWYQQKPGQSPKLLIYWASTRKSGVPDRFSGSGSGTDFTLTISSVQAEDVAVYYCKQSYNLLTFGGGTKLEIKGGGGSGGGGSGASAAGGGGSGGGGSQVQLVESGAEVVKPGASVKLSCKASGYAFTHYYIYWIKQAPGQGLEWIGGVNPSNGGTHFNEKFKSRATLTVDTSISTAYMELSRLRSDDTAVYYCTRSEYDYGLGFAYWGQGTLVTVSSGGGGSHHHHHHHH

binding [3]: binds
B3: targeting module according to SEQ ID No. 5 (bispecific antibody)
chain: EVQLQQSGPELVKPGASVKMSCKASGYTFTDYYMKWVKQSHGKSLEWIGDIIPSNGATFYNQKFKGKATLTVDRSSSTAYMHLNSLTSEDSAVYYCTRSHLLRASWFAYWGQGTLVTVSAASGGGGSGGGGSGGGGSDFVMTQSPSSLTVTAGEKVTMSCKSSQSLLNSGNQKNYLTWYLQKPGQPPKLLIYWASTRESGVPDRFTGSGSGTDFTLTISSVQAEDLAVYYCQNDYSYPYTFGGGTKLEIKAAARGDIVMTQSPDSLAVSLGERATINCKSSQSLLNSRTPKNYLAWYQQKPGQPPKLLIYWASTRKSGVPDRFSGSGSGTDFTLTISSLQAEDVAVYYCKQSYNLLTFGGGTKVEIKGGGGSGGGGSGASAAGGGGSGGGGSQVQLVQSGAEVKKPGASVKVSCKASGYTFTHYYIYWVRQAPGQGLEWMGGVNPSNGGTHFNEKFKSRVTMTRDTSISTAYMELSRLRSDDTAVYYCARSEYDYGLGFAYWGQGTLVTVSSGGGGSHHHHHHHH
